According to PMC10403576:
No constants are given. Whether binding was seen depends on the method and setting. In cells and extracts the contact can be indirect. These calls come from enrichment with a bait or labelling near it, and not all partners need be listed.

Protein sequences, listed by entry. Tags and fused reporters are not part of them. Residues count along the entry.
UniProt P09192, residues 2-330: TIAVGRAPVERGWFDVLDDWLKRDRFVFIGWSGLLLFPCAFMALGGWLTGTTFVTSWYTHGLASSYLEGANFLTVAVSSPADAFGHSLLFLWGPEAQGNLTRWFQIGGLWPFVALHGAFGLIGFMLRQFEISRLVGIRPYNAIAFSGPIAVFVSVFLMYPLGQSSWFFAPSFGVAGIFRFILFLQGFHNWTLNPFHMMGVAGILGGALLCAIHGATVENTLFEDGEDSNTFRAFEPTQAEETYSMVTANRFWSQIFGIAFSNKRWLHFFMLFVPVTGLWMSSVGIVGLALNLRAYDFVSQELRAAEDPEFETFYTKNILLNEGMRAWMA

Molecular target: His-tagged D2 reaction center subunit of PSII (Synechocystis sp. PCC 6803) (UniProt P09192)
Test: affinity purification with mass spectrometry; His-tagged D2 complexes from thylakoid membranes of strain His-D2/ΔCP47 solubilised with 1.5% DM, Protino Ni-NTA agarose at 10 °C, then 10–30% sucrose gradient; the RCII/PSI fraction analysed by SDS-PAGE, immunoblotting and mass spectrometry

Binder | binding
rubredoxin-like RubA protein (protein, UniProt P73068 1-115) MSERPPEKTLAELASPNHECRACGYVYIPSQGDQKTSVSPGTPFEALPLNWKCPVCGAPRNYFISTGETDAPSGFAENLNYGFGFNRMSGGKKNLLIFGSLFVIFLFFLSLYGMG | binds
PsaL subunit of PSI (protein, UniProt P37277 1-157) MAESNQVVQAYNGDPFVGHLSTPISDSAFTRTFIGNLPAYRKGLSPILRGLEVGMAHGYFLIGPWTLLGPLRDSEYQYIGGLIGALALILVATAALSSYGLVTFQGEQGSGDTLQTADGWSQFAAGFFVGGMGGAFVAYFLLENLSVVDGIFRGLFN | binds
PsaD subunit of PSI (protein, UniProt P19569 1-141) MTELSGQPPKFGGSTGGLLSKANREEKYAITWTSASEQVFEMPTGGAAIMNEGENLLYLARKEQCLALGTQLRTKFKPKIQDYKIYRVYPSGEVQYLHPADGVFPEKVNEGREAQGTKTRRIGQNPEPVTIKFSGKAPYEV | binds
PsaK1 subunit of PSI (protein, UniProt P72712 1-86) MHSFLLATAVPATLSWSPKVAGVMIACNILAIAFGKLTIKQQNVGTPMPSSNFFGGFGLGAVLGTASFGHILGAGVILGLANMGVL | binds
PsaK2 subunit of PSI (protein, UniProt P74564 1-90) MFNTALLLAQASPTTAGWSLSVGIIMCLCNVFAFVIGYFAIQKTGKGKDLALPQLASKKTFGLPELLATMSFGHILGAGMVLGLASSGIL | binds

Further lines, results first:

binding | Binder
binds | Ycf48 accessory factor (protein, UniProt P73069 29-342, lipidation of the Ycf48-Cys29 N-terminal residue) CSHVPDLAFNPWQEIALETDSTFADIAFTEDPNHGWLVGTKETIFETTDGGDTWEQKLIDLGEEKASFSAVSFSGNEGWITGKPSILLHTTDGGQTWARIPLSEKLPGAPYSIIALGPQTAEMITDLGAIYKTTNGGKNWKALVEGAVGVARTIQRSTDGRYVAVSARGNFYSTWAPGQTEWTPHNRNSSRRLQTMGYGKDGQLWLLARGGQLQFSTDPDAEEWSDVIAPQDKGSWGLLDLSFRTPEEVWVAGASGNLLMSQDGGQTWAKDTGVEDIPANLYRVVFLSPEKGFVLGQDGILLKYNPSTEVAMVP
binds | PsaF subunit of PSI (protein, UniProt P29256 24-165) DDFANLTPCSENPAYLAKSKNFLNTTNDPNSGKIRAERYASALCGPEGYPHLIVDGRFTHAGDFLIPSILFLYIAGWIGWVGRSYLIEIRESKNPEMQEVVINVPLAIKKMLGGFLWPLAAVGEYTSGKLVMKDSEIPTSPR
